This is one part of the list. The main result of the screen is listed elsewhere. These columns were measured beside it and carry no call. Compounds called inactive in the main read-out are mostly missing here. Words in brackets tell the shape of the fitted curve; partial curves, single points and poor fits give uncertain potencies.
Assay: IkB Signaling
Details: ABC-DLBCL IkBa-CBG/CBR dual luciferase ratio (green luciferase fused to IkBa over red control in OCI-Ly3 lymphoma cells), 4 h
Summary of the method: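 Luminescence ratio of IκBα-fused green versus native red beetle luciferase in OCI-Ly3 cells, 4 h post-doxycycline with compound; red signal alone, scaled from basal (0%) to zero light (-100%), flagged nonspecific or cytotoxic effects.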

[1] = measured here: control luc red channel unless noted
[2] = measured here: IkB-luc green channel
[3] = measured here: control luc red channel

With `CCOC(=O)c1[nH]c2c(c1Cc1ccccc1OC)C(=O)CC(c1ccccc1)C2` (configuration not stated) the AC50 [1] was 31.6 µM [falling, partial curve].
With `CCCCn1c(=O)c2oc3ccccc3c2n(Cc2ccccc2C)c1=O` the AC50 [1] was 5.01 µM [falling, partial curve].
For `O=C(COc1ccc(F)cc1)Nc1ccccc1C(=O)OCc1cc(=O)n2ccsc2n1`, the AC50 [1] was 20 µM [falling, single point].
With `Cc1nc2ccccc2c2oc(C(=O)NCC3COc4ccccc4O3)cc12` (configuration not stated) the AC50 [1] was 2.51 µM [falling, full curve].
With `Cc1nc(-c2ccccc2)sc1CCNC(=O)C(=O)Nc1ccc(F)c(Cl)c1` the AC50 [1] was 0.794 µM [rising, full curve].
For `NC(=O)c1ccccc1NC(=O)CN1c2ccccc2S(=O)(=O)c2ccccc21`, the AC50 [1] was 39.8 µM [falling, single point].
In the case of `O=C(Nc1cc(-c2ccccc2F)nn1-c1ccccc1)c1ccccc1Br`, the AC50 [1] is reported as 39.8 µM [falling, partial curve, poor fit].
With `CCCCCOC(=O)CSc1nc2sc3c(c2c(=O)n1-c1ccccc1)CC(C)(CC)OC3` (configuration not stated) the AC50 [1] was 3.16 µM [falling, partial curve].
With `CCOC(=O)c1noc2ncnc(N3CCN(c4cccc(C(F)(F)F)c4)CC3)c12` the AC50 [1] was 15.8 µM [falling, partial curve].
With `COc1ccc(Cn2c(=O)n(-c3ccc(OC)cc3)c(=O)c3c2c2cc(OC)ccc2n3C)cc1` the AC50 [1] was 6.31 µM [rising, single point] [measured here: IkB-luc green channel].
For `O=C(c1cc(-c2ccc3c(c2)OCO3)on1)N1CCOCC1`, the AC50 [1] was 10 µM [falling, partial curve].
With `COc1ccc(-c2cc(C)no2)cc1S(=O)(=O)NCc1ccco1` the AC50 [2] was 31.6 µM [rising, single point] and the AC50 [3] was 15.8 µM [rising, partial curve].
With `CCN(CC)S(=O)(=O)c1ccc2c(c1)c(=O)c(C(=O)NCc1ccccc1Cl)cn2C` the AC50 [1] was 39.8 µM [falling, single point].
For `COc1ccc(-n2c(SCc3ccccc3F)nc3c([nH]c4ccccc43)c2=O)cc1OC`, the AC50 [1] was 0.398 µM [falling, full curve, poor fit].
In the case of `COc1cc(NC(=O)c2c3c(nc4ccccc24)C(=O)N(C2CCCCC2)C3)cc(OC)c1`, the AC50 [1] is reported as 12.6 µM [falling, partial curve].
For `O=C(CSc1c2c(nc3cc(Cl)ccc13)CCCC2)N1CCN(c2ccccc2)CC1`, the AC50 [1] was 7.94 µM [falling, partial curve].
With `COc1cccc([C@H]2Nc3ccc(S(=O)(=O)Nc4cc(C)ccc4C)cc3[C@H]3C=CC[C@H]32)c1` the AC50 [1] was 10 µM [falling, partial curve].
With `Nc1nonc1C(=O)NCCNCc1cc(Br)ccc1OCc1ccccc1F` the AC50 [1] was 15.8 µM [falling, partial curve].
With `O=C(Cn1ncc2c1-c1ccccc1OC2)Nc1nc2ccccc2s1` the AC50 [2] was 15.8 µM [falling, partial curve] and the AC50 [3] was 7.94 µM [falling, partial curve].
For `CC(=O)c1cc(-c2ccc(F)cc2)n(CC(=O)NCc2ccc(C)cc2)c1C`, the AC50 [1] was 1.58 µM [falling, partial curve].
For `Cc1cc(C)c(OCC(=O)Nc2cccc(-c3nc4ncccc4o3)c2)c(Br)c1`, the AC50 [1] was 10 µM [falling, partial curve].
In the case of `COc1ccccc1NC(=O)C1C2C=CC(O2)C1C(=O)O` (configuration not stated), the AC50 [1] is reported as 12.6 µM [falling, partial curve].
In the case of `COc1cc(Cl)c(C)cc1NC(=O)NC1COc2ccccc2C1` (configuration not stated), the AC50 [1] is reported as 20 µM [falling, partial curve].
With `CCc1ccc(-c2ccc3nnc(SCC(=O)Nc4cccc(C(C)=O)c4)n3n2)cc1` the AC50 [1] was 2.51 µM [rising, partial curve].
For `Cc1nc2c(C(=O)NCc3ccc4c(c3)OCO4)c[nH]n2c(=O)c1Cc1ccccc1F`, the AC50 [1] was 7.94 µM [falling, partial curve].
For `COc1cccc(-n2nnc3c(=O)n(CC(=O)NCC4CCCO4)cnc32)c1` (configuration not stated), the AC50 [1] was 0.01 µM [falling, full curve].
For `COc1ccc(CCNC(=O)Cn2c(-c3cccs3)cc3cc(F)ccc32)cc1OC`, the AC50 [1] was 1 µM [falling, full curve, poor fit].
With `CC(=O)[C@@H]1[C@@H]2C(=O)N(Cc3ccccc3)C(=O)[C@@H]2C2c3ccccc3C=CN21` (some centres not stated) the AC50 [1] was 12.6 µM [falling, partial curve].
In the case of `COc1ccc(NC(=O)c2c(C)oc3ccc(O)c(CN4CCCC(C)C4)c23)cc1` (configuration not stated), the AC50 [1] is reported as 25.1 µM [falling, single point].
In the case of `COc1ccc(NC(=O)c2oc3ccccc3c2NC(=O)c2cc(OC)c(OC)c(OC)c2)cc1`, the AC50 [1] is reported as 7.94 µM [falling, partial curve].
